From the supplement of paper PMC10849652
This is one part of the list.

Sequences of proteins named here, by UniProt entry; tags and fusion partners are left off. A change or cut given only in a name is not applied to a line headed by its entry.
UniProt Q9H3G5: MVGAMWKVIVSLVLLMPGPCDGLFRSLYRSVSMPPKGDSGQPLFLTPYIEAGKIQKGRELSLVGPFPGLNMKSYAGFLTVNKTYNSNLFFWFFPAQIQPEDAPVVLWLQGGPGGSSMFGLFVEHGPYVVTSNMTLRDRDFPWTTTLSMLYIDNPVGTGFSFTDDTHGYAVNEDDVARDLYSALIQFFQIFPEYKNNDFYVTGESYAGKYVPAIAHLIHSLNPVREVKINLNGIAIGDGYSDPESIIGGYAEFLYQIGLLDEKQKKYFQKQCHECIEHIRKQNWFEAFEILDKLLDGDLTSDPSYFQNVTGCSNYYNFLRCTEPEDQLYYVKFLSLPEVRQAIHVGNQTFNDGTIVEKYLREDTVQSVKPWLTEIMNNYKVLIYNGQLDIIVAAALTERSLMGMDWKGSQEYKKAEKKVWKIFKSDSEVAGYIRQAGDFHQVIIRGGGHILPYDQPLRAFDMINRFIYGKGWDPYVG
UniProt O75208: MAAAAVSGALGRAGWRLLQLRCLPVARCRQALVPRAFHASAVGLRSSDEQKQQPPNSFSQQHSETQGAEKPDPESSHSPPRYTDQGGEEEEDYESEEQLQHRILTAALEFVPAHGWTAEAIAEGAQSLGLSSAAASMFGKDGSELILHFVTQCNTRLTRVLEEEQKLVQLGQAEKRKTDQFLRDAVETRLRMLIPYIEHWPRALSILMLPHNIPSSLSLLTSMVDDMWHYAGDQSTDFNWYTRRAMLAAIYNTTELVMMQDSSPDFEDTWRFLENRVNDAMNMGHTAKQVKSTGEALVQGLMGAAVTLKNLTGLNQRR
UniProt O75976: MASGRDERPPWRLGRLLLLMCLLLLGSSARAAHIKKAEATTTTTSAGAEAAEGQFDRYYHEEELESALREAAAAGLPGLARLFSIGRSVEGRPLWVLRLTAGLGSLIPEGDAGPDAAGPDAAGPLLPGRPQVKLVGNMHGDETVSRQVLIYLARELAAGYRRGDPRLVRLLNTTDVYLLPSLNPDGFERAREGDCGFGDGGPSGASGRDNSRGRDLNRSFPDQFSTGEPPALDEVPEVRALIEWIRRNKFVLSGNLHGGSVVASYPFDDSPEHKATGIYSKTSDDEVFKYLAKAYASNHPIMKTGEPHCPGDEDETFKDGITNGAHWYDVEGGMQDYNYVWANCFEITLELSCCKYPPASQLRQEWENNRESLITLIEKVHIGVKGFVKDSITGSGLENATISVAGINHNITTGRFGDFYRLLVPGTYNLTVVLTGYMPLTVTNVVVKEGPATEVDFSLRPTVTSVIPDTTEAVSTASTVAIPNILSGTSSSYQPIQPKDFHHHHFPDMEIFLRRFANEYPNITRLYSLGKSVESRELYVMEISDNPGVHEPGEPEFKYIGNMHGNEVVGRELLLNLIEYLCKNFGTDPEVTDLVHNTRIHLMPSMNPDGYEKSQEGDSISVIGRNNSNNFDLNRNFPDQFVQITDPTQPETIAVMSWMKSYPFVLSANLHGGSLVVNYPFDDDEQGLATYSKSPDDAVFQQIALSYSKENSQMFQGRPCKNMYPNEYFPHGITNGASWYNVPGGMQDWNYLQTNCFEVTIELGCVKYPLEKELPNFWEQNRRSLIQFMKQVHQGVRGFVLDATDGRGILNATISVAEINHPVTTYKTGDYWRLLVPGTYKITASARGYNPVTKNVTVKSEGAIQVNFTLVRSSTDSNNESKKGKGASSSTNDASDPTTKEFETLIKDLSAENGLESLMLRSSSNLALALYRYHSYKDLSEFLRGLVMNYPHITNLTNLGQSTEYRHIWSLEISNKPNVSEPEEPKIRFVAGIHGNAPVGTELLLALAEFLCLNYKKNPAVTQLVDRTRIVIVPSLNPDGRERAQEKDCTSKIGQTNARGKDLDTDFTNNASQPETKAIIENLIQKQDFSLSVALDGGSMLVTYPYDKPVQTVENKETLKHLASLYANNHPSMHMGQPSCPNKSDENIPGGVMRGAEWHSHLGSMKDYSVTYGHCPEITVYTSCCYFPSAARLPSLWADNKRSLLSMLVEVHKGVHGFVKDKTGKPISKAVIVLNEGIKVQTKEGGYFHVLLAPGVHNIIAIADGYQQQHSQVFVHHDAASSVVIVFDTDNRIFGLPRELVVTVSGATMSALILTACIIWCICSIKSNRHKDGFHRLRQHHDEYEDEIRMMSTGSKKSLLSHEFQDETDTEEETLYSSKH
UniProt P13073, whole entry, looked up: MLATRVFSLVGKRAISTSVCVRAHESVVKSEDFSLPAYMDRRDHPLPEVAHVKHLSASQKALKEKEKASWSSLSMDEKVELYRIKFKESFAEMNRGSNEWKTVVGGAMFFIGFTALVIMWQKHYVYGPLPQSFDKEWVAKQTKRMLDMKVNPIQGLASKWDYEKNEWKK
UniProt Q9Y678: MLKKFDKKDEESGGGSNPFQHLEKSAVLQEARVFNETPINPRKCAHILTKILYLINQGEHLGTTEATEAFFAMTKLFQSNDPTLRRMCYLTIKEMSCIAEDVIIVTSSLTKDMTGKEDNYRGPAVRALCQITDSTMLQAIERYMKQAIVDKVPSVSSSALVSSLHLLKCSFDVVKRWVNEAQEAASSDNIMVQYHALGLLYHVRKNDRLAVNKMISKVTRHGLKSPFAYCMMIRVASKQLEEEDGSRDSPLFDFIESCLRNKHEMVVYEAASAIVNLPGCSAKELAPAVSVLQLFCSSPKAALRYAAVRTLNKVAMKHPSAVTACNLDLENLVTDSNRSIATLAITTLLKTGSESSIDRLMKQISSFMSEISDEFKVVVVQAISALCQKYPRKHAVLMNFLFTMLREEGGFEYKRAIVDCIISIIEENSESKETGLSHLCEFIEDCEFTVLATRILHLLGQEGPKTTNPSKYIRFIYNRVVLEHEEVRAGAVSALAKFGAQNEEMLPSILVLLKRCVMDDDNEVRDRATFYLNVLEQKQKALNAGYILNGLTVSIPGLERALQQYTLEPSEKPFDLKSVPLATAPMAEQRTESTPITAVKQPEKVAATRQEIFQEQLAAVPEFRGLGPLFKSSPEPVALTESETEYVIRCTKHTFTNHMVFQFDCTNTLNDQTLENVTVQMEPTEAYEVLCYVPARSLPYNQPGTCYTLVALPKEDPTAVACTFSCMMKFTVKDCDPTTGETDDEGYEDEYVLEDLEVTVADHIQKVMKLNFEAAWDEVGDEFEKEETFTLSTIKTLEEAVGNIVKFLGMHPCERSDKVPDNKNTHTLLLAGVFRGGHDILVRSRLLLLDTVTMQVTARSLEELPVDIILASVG
UniProt Q08257: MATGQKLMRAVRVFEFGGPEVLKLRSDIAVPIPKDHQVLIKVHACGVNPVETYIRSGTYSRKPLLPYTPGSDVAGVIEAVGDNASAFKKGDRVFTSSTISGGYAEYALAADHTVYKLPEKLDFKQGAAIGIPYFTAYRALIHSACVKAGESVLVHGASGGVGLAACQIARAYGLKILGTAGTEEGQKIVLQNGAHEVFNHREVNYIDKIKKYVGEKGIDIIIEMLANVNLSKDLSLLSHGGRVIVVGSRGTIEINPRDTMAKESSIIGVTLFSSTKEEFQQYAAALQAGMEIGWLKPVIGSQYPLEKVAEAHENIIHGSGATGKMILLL
UniProt Q5RI15: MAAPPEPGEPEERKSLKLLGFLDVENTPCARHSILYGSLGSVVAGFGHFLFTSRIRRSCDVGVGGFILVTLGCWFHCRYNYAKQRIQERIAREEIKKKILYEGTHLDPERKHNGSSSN
UniProt Q99807: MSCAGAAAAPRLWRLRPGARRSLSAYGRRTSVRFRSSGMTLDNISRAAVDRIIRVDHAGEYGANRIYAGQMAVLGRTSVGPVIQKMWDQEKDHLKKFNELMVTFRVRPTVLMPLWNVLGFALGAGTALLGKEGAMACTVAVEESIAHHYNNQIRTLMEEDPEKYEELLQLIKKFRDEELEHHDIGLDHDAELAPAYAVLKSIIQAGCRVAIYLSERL
UniProt P12109: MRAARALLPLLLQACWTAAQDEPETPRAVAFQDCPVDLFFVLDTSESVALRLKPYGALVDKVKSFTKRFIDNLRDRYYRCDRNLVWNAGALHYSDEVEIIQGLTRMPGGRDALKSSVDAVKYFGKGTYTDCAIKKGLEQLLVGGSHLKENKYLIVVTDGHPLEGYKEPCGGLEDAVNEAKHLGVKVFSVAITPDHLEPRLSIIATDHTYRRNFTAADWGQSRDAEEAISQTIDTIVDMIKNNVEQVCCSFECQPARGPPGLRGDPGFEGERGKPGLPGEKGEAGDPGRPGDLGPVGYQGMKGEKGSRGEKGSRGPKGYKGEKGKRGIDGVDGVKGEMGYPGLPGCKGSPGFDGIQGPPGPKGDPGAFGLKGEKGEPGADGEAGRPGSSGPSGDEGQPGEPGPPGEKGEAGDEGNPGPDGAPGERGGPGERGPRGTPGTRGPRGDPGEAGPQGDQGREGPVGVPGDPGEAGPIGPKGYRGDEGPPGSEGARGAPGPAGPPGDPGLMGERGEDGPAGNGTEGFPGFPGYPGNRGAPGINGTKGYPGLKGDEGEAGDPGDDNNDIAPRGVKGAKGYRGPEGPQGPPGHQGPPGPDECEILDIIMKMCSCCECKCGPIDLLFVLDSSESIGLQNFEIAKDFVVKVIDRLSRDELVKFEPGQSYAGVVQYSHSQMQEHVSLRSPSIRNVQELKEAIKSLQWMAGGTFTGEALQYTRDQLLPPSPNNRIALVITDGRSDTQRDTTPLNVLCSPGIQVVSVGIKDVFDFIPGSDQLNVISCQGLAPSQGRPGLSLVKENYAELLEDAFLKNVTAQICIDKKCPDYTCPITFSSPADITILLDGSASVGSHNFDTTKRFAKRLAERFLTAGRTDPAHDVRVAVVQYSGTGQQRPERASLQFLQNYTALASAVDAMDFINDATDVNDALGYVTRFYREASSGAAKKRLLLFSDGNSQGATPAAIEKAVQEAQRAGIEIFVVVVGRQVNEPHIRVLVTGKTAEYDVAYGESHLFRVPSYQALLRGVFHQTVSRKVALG
UniProt Q9GZQ3, whole entry, looked up: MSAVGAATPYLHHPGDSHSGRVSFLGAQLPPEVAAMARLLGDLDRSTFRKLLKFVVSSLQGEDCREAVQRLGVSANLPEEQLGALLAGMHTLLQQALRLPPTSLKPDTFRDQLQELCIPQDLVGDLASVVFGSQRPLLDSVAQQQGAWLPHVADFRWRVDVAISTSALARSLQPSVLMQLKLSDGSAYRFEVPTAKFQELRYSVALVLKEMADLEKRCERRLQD
UniProt Q96I36: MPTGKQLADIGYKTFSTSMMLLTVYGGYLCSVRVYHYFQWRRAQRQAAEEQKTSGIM
UniProt Q9UBW8: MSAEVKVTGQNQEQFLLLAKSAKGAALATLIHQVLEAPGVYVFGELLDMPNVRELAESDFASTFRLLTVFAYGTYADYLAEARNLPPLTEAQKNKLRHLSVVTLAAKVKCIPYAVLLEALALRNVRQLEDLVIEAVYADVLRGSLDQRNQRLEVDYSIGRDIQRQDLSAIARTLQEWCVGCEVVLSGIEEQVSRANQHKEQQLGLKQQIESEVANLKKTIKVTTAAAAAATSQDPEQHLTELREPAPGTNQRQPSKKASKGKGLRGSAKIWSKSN
UniProt P49747: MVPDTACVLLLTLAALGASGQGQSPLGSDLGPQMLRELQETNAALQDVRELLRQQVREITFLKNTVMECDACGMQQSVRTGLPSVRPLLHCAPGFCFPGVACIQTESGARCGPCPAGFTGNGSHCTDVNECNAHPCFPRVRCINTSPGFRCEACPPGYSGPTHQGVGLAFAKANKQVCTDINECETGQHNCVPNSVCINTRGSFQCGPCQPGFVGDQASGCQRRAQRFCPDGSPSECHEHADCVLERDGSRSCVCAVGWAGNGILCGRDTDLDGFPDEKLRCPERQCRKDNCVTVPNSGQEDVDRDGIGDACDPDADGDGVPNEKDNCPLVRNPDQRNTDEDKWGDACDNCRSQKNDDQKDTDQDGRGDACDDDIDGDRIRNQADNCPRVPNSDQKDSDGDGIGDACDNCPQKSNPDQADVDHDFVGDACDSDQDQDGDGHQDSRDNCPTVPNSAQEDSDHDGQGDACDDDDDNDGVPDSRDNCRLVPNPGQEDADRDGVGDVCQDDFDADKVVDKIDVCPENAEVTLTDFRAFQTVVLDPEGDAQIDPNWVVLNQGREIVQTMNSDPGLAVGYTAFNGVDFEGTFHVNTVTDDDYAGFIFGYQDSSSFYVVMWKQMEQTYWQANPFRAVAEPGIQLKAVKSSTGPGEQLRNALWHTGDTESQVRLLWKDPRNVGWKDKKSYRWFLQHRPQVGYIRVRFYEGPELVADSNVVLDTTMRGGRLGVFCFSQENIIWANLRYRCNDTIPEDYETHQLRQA
UniProt Q03060: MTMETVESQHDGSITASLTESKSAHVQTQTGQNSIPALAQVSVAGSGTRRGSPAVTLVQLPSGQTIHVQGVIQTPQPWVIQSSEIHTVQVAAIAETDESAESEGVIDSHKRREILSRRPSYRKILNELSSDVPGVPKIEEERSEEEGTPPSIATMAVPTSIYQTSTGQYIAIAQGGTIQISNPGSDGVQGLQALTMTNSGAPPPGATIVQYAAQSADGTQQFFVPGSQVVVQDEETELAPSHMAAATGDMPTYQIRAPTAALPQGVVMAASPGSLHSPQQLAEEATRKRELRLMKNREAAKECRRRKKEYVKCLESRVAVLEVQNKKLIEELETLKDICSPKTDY

Tests used:
Test in all cases: log2 fold change, soluble protein after heating vs DMSO (PISA); higher = thermal stabilisation; K562 cells, 10 uM, 30 min; active = over 0.2 and 3.5 SD of the protein, either way, in both replicates (recomputed)
[1] = compound: CC1=C(C=C(C=C1)NC(=O)C2=CC(=CC=C2)C(C)(C)C#N)NC3=CC4=C(C=C3)N=CN(C4=O)C
Procedure, shortened: (§1)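 K562 cells (2×10^6 cells/mL) were treated with 10 μM compound for 30 min, and aliquots were heated for 3 min over 48°C-58°C. Pooled aliquots were extracted in PBS with 0.5% NP-40 at 4°C, and the supernatant after 21,000xg for 90 min was measured by TMTpro 16plex LC-MS/MS with channel sums equalised. Reported thermal stability, relative to control samples and from duplicates, is a log2 fold change.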

[2] = compound: CC1=C(C=C(C=C1)NC(=O)C2=CC(=CC=C2)N(C)C)NC(=O)C3=CC=C(C=C3)O
Procedure, shortened: as §1

[3] = compound: CC1=CC=C(C=C1)SC2=C3C=C(SC3=CN=C2)C(=O)N
Procedure, shortened: as §1

[4] = compound: CC1=NC(=CC=C1)C2=C(N=C(N2)C(C)(C)C)C3=CC4=NC=CN=C4C=C3
Procedure, shortened: as §1

Nexturastat A = compound: CCCCN(Cc1ccc(C(=O)NO)cc1)C(=O)Nc1ccccc1 [Nexturastat A]
Procedure, shortened: as §1

vemurafenib = compound: CCCS(=O)(=O)Nc1ccc(F)c(C(=O)c2c[nH]c3ncc(-c4ccc(Cl)cc4)cc23)c1F [vemurafenib]
Procedure, shortened: as §1

[5] = compound: CCCS(=O)(=O)Nc1ccc(F)c(C(=O)c2c[nH]c3ncc(Cl)cc23)c1F
Procedure, shortened: as §1

[6] = compound: CCCc1cc(C)[nH]c(=O)c1CNC(=O)c1cc(-c2ccnc(N3CCN(C)CC3)c2)cc2c1cnn2C(C)C
Procedure, shortened: as §1

givinostat = compound: CCN(CC)Cc1ccc2cc(COC(=O)Nc3ccc(C(=O)NO)cc3)ccc2c1 [givinostat]
Procedure, shortened: as §1

barasertib = compound: CCN(CCCOc1ccc2c(Nc3cc(CC(=O)Nc4cccc(F)c4)[nH]n3)ncnc2c1)CCOP(=O)(O)O [barasertib]
Procedure, shortened: as §1

Target	log2 fold change [1]	log2 fold change [2]	log2 fold change [3]	log2 fold change [4]	log2 fold change (Nexturastat A)	log2 fold change (vemurafenib)	log2 fold change [5]	log2 fold change [6]	log2 fold change (givinostat)	log2 fold change (barasertib)
CSNK1A1 (UniProt P48729)	inactive: -0.021	inactive: 0.03	inactive: -0.006	inactive: -0.12	inactive: 0.028	inactive: -0.006	inactive: 0	inactive: 0.031	inactive: 0.037	inactive: 0
CPVL (UniProt Q9H3G5)	inactive: -0.044	inactive: 0.047	inactive: -0.003	inactive: 0.008	inactive: -0.103	inactive: -0.004	inactive: 0.005	inactive: -0.189	inactive: 0.082	inactive: 0.035
COX6B1 (UniProt P14854)	inactive: -0.006	inactive: -0.144	inactive: 0.136	inactive: 0.016	inactive: -0.001	inactive: 0.015	inactive: -0.005	inactive: -0.069	inactive: -0.025	inactive: 0.085
COQ9 (UniProt O75208)	inactive: 0.016	inactive: 0.045	inactive: 0.054	inactive: 0.064	active: -0.266	inactive: 0.041	inactive: -0.004	inactive: -0.006	inactive: -0.006	inactive: 0.046
COQ3 (UniProt Q9NZJ6)	inactive: 0.03	inactive: -0.048	inactive: -0.004	inactive: 0.008	inactive: -0.074	inactive: 0.069	inactive: 0.026	inactive: 0	inactive: 0.086	inactive: -0.032
CPD (UniProt O75976)	inactive: -0.017	inactive: 0	inactive: -0.01	inactive: -0.016	inactive: -0.001	inactive: -0.017	inactive: -0.021	inactive: -0.062	inactive: 0.016	inactive: 0.011
COX4I1 (UniProt P13073)	inactive: 0.043	inactive: 0.004	inactive: -0.009	inactive: -0.012	inactive: -0.012	inactive: 0.023	inactive: -0.033	inactive: -0.062	inactive: 0	inactive: -0.018
COPG1 (UniProt Q9Y678)	inactive: 0.014	inactive: -0.016	inactive: 0.02	inactive: 0.028	inactive: -0.057	inactive: 0.01	inactive: 0.002	inactive: 0.001	inactive: -0.013	inactive: 0.043
CRLF3 (UniProt Q8IUI8)	inactive: 0.05	inactive: -0.015	inactive: 0.03	inactive: -0.071	inactive: 0.005	inactive: 0.057	inactive: 0.044	inactive: 0.025	inactive: 0.065	inactive: 0.073
CRYZ (UniProt Q08257)	inactive: 0.007	inactive: -0.005	inactive: 0.02	inactive: 0.001	inactive: -0.033	inactive: -0.027	inactive: 0.004	inactive: -0.051	inactive: -0.009	inactive: -0.036
COPS8 (UniProt Q99627)	inactive: 0.031	inactive: -0.04	inactive: 0	inactive: -0.09	inactive: 0.126	inactive: -0.003	inactive: -0.031	inactive: -0.056	inactive: 0.049	inactive: 0.009
COX15 (UniProt Q7KZN9)	inactive: 0.05	inactive: 0.024	inactive: 0.001	inactive: 0.003	inactive: -0.113	inactive: 0.005	inactive: 0.015	inactive: -0.077	inactive: -0.008	inactive: 0.009
COX20 isoform 2 (UniProt Q5RI15)	inactive: 0.035	inactive: -0.041	inactive: 0.102	inactive: 0.036	inactive: -0.038	inactive: -0.036	inactive: -0.041	inactive: 0.069	inactive: -0.04	inactive: -0.03
CPT1A (UniProt P50416)	inactive: 0.069	inactive: -0.077	inactive: -0.054	inactive: -0.114	inactive: 0.083	inactive: 0.11	inactive: 0.022	inactive: 0.09	inactive: 0.048	inactive: 0.01
CSNK2B (UniProt P67870)	inactive: -0.019	inactive: 0.021	inactive: -0.032	inactive: 0.066	inactive: -0.021	inactive: 0.026	inactive: 0.016	inactive: -0.034	inactive: -0.03	inactive: -0.008
CPSF3 (UniProt Q9UKF6)	inactive: -0.014	inactive: 0.005	inactive: -0.006	inactive: -0.012	inactive: -0.085	inactive: 0.017	inactive: 0.063	inactive: -0.001	inactive: -0.03	inactive: 0.022
CPNE1 (UniProt Q99829)	inactive: -0.013	inactive: 0.027	inactive: 0.002	inactive: 0.018	inactive: -0.088	inactive: 0.015	inactive: 0.003	inactive: -0.089	inactive: 0.003	inactive: 0.008
COQ7 (UniProt Q99807)	inactive: 0.028	inactive: 0.086	inactive: 0.02	inactive: 0.018	inactive: -0.068	inactive: -0.002	inactive: -0.061	inactive: -0.034	inactive: -0.091	inactive: 0.023
COL6A1 (UniProt P12109)	inactive: -0.05	inactive: 0.184	inactive: 0.045	inactive: 0.103	–	inactive: 0.191	inactive: -0.242	inactive: -0.241	inactive: -0.066	inactive: -0.054
COPS3 isoform 2 (UniProt Q9UNS2)	inactive: -0.154	inactive: 0.03	inactive: 0.066	inactive: -0.128	inactive: -0.113	inactive: -0.303	inactive: -0.14	inactive: -0.162	–	inactive: 0.065
COX6A1 (UniProt P12074)	inactive: -0.059	inactive: -0.083	inactive: -0.053	inactive: -0.03	–	inactive: -0.133	inactive: -0.08	inactive: 0.328	inactive: -0.029	inactive: -0.034
COMMD5 (UniProt Q9GZQ3)	inactive: 0.04	inactive: -0.07	inactive: 0.014	inactive: 0.043	inactive: -0.148	inactive: 0.044	inactive: -0.004	inactive: -0.007	inactive: -0.036	inactive: 0.021
COX14 (UniProt Q96I36)	inactive: 0.081	–	inactive: -0.05	inactive: 0.171	inactive: -0.174	–	inactive: 0.037	–	inactive: -0.046	inactive: -0.277
CRBN (UniProt Q96SW2)	inactive: -0.009	inactive: 0.021	inactive: -0.047	inactive: -0.027	inactive: 0.003	inactive: -0.016	inactive: -0.021	inactive: -0.089	inactive: -0.044	inactive: 0.014
CORO2A (UniProt Q92828)	inactive: 0.014	inactive: 0.157	inactive: 0.01	–	–	inactive: 0.063	inactive: 0.054	inactive: 0.026	inactive: 0.002	inactive: 0.065
COPS7A (UniProt Q9UBW8)	inactive: 0.021	inactive: 0.062	inactive: 0.034	inactive: -0.011	inactive: 0.042	inactive: 0	inactive: -0.009	inactive: -0.066	inactive: 0.033	inactive: 0.014
COMP (UniProt P49747)	inactive: 0.133	inactive: 0.402	inactive: 0.089	inactive: 0.074	–	–	inactive: -0.14	inactive: -0.296	inactive: -0.075	inactive: 0.033
CREM isoform 1 (UniProt Q03060)	inactive: -0.086	inactive: 0.07	inactive: -0.031	–	inactive: -0.135	inactive: -0.15	inactive: -0.07	inactive: -0.062	inactive: -0.162	inactive: 0.04

Record cards, as listed above. Order of values: log2 fold change [1] | log2 fold change [2] | log2 fold change [3] | log2 fold change [4] | log2 fold change (Nexturastat A) | log2 fold change (vemurafenib) | log2 fold change [5] | log2 fold change [6] | log2 fold change (givinostat) | log2 fold change (barasertib)
COMMD5 (UniProt Q9GZQ3) is entered as inactive: 0.04 | inactive: -0.07 | inactive: 0.014 | inactive: 0.043 | inactive: -0.148 | inactive: 0.044 | inactive: -0.004 | inactive: -0.007 | inactive: -0.036 | inactive: 0.021
COL6A1 (UniProt P12109) is entered as inactive: -0.05 | inactive: 0.184 | inactive: 0.045 | inactive: 0.103 | – | inactive: 0.191 | inactive: -0.242 | inactive: -0.241 | inactive: -0.066 | inactive: -0.054
